Test results from article PMC7997971.
These are yes or no findings as the source states them, for the method shown. Binding calls can cover weak binding; strength is not graded here. Tags and fused reporters may be left off the sequences shown. For some of these results: In cells and extracts the contact can be indirect.

Sequences of proteins named here, by UniProt entry; tags and fusion partners are left off. A change or cut given only in a name is not applied to a line headed by its entry.
UniProt Q9LDK9: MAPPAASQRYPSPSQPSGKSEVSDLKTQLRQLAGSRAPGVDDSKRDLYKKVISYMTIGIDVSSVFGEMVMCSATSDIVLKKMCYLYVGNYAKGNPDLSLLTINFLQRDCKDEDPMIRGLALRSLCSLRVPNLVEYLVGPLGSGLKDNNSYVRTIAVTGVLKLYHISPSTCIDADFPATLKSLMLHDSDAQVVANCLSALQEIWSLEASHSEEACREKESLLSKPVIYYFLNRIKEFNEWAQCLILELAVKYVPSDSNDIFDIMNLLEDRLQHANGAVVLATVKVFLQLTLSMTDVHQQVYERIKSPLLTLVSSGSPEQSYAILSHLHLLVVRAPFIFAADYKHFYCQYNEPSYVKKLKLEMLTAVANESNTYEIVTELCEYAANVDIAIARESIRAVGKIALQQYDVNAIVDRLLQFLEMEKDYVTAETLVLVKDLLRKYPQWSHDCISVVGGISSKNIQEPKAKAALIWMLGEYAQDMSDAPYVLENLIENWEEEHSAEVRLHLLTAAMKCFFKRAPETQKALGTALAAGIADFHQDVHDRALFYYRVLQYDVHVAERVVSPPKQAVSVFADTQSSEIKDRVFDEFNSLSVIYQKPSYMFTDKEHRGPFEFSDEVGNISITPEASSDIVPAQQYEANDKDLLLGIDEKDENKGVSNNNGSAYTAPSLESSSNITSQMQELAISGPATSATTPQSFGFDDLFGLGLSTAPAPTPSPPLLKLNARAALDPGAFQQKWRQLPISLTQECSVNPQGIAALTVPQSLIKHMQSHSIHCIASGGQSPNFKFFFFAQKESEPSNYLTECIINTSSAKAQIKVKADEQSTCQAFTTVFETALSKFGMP
UniProt Q0WNJ6: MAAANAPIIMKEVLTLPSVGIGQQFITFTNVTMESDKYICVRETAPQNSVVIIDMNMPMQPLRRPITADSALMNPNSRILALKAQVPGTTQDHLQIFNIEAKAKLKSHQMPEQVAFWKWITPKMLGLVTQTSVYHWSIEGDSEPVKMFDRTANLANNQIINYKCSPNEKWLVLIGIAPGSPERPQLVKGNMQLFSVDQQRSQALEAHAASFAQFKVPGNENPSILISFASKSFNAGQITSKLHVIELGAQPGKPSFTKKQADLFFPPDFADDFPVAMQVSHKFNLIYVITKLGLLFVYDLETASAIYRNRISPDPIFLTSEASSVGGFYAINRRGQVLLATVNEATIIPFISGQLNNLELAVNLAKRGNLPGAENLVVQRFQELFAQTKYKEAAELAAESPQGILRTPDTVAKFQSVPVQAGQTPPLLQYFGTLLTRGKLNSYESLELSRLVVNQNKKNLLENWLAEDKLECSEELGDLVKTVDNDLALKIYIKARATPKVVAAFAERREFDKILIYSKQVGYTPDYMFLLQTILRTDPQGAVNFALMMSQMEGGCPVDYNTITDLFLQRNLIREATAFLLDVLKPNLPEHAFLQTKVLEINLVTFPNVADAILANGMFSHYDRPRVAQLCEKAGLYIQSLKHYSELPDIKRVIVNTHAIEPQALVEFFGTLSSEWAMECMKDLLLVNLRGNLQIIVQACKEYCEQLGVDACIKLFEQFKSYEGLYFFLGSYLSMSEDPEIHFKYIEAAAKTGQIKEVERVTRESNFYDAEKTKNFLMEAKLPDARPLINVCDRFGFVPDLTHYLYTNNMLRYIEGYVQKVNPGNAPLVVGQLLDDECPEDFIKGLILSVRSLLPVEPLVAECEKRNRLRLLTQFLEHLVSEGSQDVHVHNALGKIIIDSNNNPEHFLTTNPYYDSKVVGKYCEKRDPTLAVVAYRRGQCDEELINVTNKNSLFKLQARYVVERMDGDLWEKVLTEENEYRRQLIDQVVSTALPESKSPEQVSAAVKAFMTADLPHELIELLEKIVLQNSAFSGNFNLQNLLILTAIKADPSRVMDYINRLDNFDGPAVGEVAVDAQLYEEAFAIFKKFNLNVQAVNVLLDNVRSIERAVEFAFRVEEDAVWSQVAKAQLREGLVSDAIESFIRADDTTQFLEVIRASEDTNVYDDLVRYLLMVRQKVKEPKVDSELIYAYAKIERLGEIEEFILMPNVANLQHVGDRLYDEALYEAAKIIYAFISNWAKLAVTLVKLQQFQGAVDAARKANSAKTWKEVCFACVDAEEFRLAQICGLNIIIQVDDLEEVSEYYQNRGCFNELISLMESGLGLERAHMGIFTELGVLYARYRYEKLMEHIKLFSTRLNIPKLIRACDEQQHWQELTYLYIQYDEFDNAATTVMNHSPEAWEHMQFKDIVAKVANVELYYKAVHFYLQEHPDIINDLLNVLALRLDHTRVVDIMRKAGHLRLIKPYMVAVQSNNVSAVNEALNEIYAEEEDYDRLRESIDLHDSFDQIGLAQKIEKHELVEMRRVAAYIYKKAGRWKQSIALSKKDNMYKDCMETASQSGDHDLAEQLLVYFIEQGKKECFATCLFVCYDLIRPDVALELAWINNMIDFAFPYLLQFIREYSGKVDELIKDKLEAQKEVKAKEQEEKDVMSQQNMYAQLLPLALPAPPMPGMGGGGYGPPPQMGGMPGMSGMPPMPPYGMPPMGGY
UniProt Q9SUS3: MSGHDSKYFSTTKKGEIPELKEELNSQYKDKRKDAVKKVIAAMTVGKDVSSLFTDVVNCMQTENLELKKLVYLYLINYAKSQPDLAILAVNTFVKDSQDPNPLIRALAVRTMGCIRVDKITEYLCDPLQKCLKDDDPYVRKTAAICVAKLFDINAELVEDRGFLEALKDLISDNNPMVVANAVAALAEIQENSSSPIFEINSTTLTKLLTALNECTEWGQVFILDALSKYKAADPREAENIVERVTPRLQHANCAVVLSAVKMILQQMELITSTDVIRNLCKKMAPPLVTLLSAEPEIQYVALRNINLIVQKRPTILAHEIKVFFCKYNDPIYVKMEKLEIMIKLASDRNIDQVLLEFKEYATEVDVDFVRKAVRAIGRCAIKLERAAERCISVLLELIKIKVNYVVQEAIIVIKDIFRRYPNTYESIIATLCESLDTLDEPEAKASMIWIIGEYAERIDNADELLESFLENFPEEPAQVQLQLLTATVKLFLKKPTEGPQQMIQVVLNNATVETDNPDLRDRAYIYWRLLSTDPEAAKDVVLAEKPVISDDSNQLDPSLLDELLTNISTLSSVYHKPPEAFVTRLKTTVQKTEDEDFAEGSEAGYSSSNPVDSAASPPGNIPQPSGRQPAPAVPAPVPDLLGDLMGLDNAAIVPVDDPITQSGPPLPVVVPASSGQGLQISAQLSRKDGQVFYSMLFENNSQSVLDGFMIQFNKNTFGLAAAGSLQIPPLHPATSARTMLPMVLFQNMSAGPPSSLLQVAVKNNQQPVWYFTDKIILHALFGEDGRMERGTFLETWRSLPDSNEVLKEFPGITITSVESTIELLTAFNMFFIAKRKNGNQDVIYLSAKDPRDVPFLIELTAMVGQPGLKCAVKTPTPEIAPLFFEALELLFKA
UniProt O81742: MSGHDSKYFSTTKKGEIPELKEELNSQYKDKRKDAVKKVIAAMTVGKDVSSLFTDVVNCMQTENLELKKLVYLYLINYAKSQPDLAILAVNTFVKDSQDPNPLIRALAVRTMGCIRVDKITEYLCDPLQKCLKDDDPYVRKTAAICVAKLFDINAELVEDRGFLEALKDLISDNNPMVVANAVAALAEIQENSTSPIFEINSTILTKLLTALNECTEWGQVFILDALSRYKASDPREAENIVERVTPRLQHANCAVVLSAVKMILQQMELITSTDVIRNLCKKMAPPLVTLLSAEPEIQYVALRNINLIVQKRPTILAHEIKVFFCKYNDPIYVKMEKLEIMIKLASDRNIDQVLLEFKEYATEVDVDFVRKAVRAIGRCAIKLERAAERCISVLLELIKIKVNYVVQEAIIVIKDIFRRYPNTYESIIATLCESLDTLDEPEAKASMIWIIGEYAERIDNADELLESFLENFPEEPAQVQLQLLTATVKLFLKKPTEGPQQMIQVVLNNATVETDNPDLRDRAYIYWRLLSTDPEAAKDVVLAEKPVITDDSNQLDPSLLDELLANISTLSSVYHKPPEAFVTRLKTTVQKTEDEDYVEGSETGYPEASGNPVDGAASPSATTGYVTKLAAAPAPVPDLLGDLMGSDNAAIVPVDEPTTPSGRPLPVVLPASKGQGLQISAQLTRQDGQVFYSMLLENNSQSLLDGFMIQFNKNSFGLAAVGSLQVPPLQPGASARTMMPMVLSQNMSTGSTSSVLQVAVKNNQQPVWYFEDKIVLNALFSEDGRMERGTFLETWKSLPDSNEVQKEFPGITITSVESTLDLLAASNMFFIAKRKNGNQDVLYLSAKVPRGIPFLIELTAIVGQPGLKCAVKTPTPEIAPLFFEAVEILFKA

Legend:
[1] = molecular target: T1, amino-terminal domain of CHC2 (clathrin heavy chain 2), GAL4 BD fusion (Arabidopsis thaliana) (UniProt Q0WLB5); assay: two-hybrid; GAL4 AD fusions of AP large subunits against GAL4 BD-CHC2 NTD in S. cerevisiae AH109; growth on medium lacking Leu, Trp, His and adenine, 4 days at 30 °C; five independent colonies
T1 sequence: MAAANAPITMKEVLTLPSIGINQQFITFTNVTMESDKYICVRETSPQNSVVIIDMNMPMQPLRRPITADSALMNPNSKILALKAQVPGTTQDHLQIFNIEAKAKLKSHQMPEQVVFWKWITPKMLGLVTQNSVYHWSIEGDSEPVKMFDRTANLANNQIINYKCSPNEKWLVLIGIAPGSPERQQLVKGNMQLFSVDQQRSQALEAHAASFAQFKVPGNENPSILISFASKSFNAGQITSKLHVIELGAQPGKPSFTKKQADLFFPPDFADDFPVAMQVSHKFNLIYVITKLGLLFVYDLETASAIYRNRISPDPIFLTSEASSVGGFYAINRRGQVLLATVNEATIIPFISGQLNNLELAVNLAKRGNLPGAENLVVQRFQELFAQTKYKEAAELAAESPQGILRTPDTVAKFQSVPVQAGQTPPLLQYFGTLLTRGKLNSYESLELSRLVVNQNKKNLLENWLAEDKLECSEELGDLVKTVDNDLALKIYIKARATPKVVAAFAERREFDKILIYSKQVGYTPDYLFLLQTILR

[2] = molecular target: T2, AP1M2-GFP (mu subunit of AP-1, GFP-tagged) (Arabidopsis thaliana) (UniProt O22715); assay: co-IP; lysates of 14 DAG A. thaliana seedlings expressing GFP fusions (50 mM Tris-HCl pH 7.5, 1 mM EDTA, 1% Triton X-100, no NaCl); anti-GFP immunoprecipitation (μMACS GFP Isolation Kit); immunoblot with anti-CHC
T2 sequence: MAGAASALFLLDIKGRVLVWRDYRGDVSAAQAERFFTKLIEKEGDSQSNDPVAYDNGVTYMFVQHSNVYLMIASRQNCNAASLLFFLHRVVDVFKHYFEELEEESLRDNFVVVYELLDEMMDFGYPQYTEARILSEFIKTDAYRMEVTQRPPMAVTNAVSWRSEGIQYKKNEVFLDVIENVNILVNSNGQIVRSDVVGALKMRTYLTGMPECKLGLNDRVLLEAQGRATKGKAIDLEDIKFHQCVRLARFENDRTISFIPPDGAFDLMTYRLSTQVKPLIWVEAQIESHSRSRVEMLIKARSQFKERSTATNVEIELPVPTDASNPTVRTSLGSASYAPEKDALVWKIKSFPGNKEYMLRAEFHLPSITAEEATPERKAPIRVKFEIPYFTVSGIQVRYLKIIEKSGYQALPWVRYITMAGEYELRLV

[3] = molecular target: T3, AP4M-GFP (mu subunit of AP-4, GFP-tagged) (Arabidopsis thaliana) (UniProt Q9SB50); assay: as above
T3 sequence: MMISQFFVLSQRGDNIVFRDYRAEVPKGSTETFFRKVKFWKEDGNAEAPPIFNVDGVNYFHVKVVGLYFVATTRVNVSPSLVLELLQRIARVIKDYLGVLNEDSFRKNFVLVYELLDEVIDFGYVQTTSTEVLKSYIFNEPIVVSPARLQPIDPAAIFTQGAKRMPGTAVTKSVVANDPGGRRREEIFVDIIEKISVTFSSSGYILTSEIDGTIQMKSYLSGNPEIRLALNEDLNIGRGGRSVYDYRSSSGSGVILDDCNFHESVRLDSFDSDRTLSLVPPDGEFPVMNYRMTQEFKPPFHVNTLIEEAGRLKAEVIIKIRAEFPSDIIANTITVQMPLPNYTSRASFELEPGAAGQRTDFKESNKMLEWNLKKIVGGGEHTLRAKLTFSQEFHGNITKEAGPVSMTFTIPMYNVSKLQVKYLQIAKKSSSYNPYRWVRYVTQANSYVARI

Substance	binding [1]	binding [2]	binding [3]
AP1G1 (gamma subunit of AP-1), GAL4 AD fusion (Arabidopsis thaliana)	binds		
AP1G2 (gamma subunit of AP-1), GAL4 AD fusion (Arabidopsis thaliana)	binds		
AP4B (beta subunit of AP-4), GAL4 AD fusion (from UniProt Q9LDK9)	no binding		
clathrin heavy chain (CHC), endogenous (from UniProt Q0WNJ6)		binds	binds weakly

Continued, values first:

binding [1]	binding [2]	binding [3]	Substance
no binding			AP1B1 (beta subunit of AP-1), GAL4 AD fusion (from UniProt Q9SUS3)
no binding			AP1B2 (beta subunit of AP-1), GAL4 AD fusion (from UniProt O81742)
